# Data as given in paper PMC11111408, “Concurrent inhibition of oncogenic and wild-type RAS-GTP for cancer therapy” (Nature, 2024).
# This continues a long series; more values of the same kind are listed elsewhere.
# Test system: PRISM DNA-barcoded human tumour cell lines
# Assay: PRISM pooled cell viability assay;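 also: 8 threefold dilutions from 10 µM with 5 days of exposure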
# Format: cell-based
# Set-up: Area under the curve (AUC): scale not given here
# Conditions: for PRISM AUC: KRAS MUT
# Method: Cells were then lysed in TCL mRNA lysis buffer, and then PCR with reverse transcription was performed. Detection of the barcodes and univariate and multivariate analysis was then performed as previously described. Data analysis is described in the Supplementary Methods. Up-to-date code for our analysis is at the github link: https://github.com/cmap/dockerized_mts.
# For every gene with non-silent mutations in at least four cell-lines, we compared the AUC values between cells with and without those mutations using a t-test. This analysis was carried out for: (i) the full dataset; (ii) excluding cell lines with non-silent KRAS mutations; and (iii) excluding cell lines that have either KRAS or NRAS non-silent mutations.
# [1] = RCHACV_HAEMATOPOIETIC_AND_LYMPHOID_TISSUE
smiles,measurement,setting,value
CCn1c(-c2cc(N3CCN(C4CC4)CC3)cnc2[C@H](C)OC)c2c3cc(ccc31)-c1csc(n1)C[C@H](NC(=O)[C@H]1[C@@H]3COC[C@@H]31)C(=O)N1CCC[C@H](N1)C(=O)OCC(C)(C)C2 [RMC-7977],Area under the curve (AUC),PRISM cell line U343_CENTRAL_NERVOUS_SYSTEM,0.7211
same,Area under the curve (AUC),PRISM cell line U937_HAEMATOPOIETIC_AND_LYMPHOID_TISSUE,0.6008
same,Area under the curve (AUC),PRISM cell line U2940_HAEMATOPOIETIC_AND_LYMPHOID_TISSUE,0.8649
same,Area under the curve (AUC),PRISM cell line U2973_HAEMATOPOIETIC_AND_LYMPHOID_TISSUE,0.8907
same,Area under the curve (AUC),PRISM cell line UACC62_SKIN,0.8808
same,Area under the curve (AUC),PRISM cell line UACC257_SKIN,0.8233
same,Area under the curve (AUC),PRISM cell line UBLC1_URINARY_TRACT,0.4827
same,Area under the curve (AUC),PRISM cell line ULA_HAEMATOPOIETIC_AND_LYMPHOID_TISSUE,0.734
same,Area under the curve (AUC),PRISM cell line UMRC3_KIDNEY,0.8855
same,Area under the curve (AUC),PRISM cell line UMRC7_KIDNEY,0.7617
same,Area under the curve (AUC),PRISM cell line UMUC1_URINARY_TRACT,0.5901
same,Area under the curve (AUC),PRISM cell line UMUC5_URINARY_TRACT,0.4821
same,Area under the curve (AUC),PRISM cell line UMUC6_URINARY_TRACT,0.3557
same,Area under the curve (AUC),PRISM cell line UMUC7_URINARY_TRACT,0.6909
same,Area under the curve (AUC),PRISM cell line UMUC10_URINARY_TRACT,0.7802
same,Area under the curve (AUC),PRISM cell line UMUC11_URINARY_TRACT,0.7319
same,Area under the curve (AUC),PRISM cell line UMUC13_URINARY_TRACT,0.527
same,Area under the curve (AUC),PRISM cell line UO31_KIDNEY,0.8639
same,Area under the curve (AUC),PRISM cell line UPCISCC072_UPPER_AERODIGESTIVE_TRACT,0.6301
same,Area under the curve (AUC),PRISM cell line UPCISCC111_UPPER_AERODIGESTIVE_TRACT,0.5006
same,Area under the curve (AUC),PRISM cell line UPCISCC116_UPPER_AERODIGESTIVE_TRACT,0.3974
same,Area under the curve (AUC),PRISM cell line UW228_CENTRAL_NERVOUS_SYSTEM,0.5725
same,Area under the curve (AUC),PRISM cell line VAESBJ_SOFT_TISSUE,0.9566
same,Area under the curve (AUC),PRISM cell line VAL_HAEMATOPOIETIC_AND_LYMPHOID_TISSUE,0.8253
same,Area under the curve (AUC),PRISM cell line VMCUB1_URINARY_TRACT,0.5136
same,Area under the curve (AUC),PRISM cell line VMRCRCW_KIDNEY,0.9168
same,Area under the curve (AUC),PRISM cell line VMRCRCZ_KIDNEY,0.799
same,Area under the curve (AUC),PRISM cell line WAOSEL_HAEMATOPOIETIC_AND_LYMPHOID_TISSUE,0.6372
same,Area under the curve (AUC),PRISM cell line WERIRB1_AUTONOMIC_GANGLIA,0.7995
same,Area under the curve (AUC),PRISM cell line WM88_SKIN,0.8433
same,Area under the curve (AUC),PRISM cell line WM793_SKIN,0.8212
same,Area under the curve (AUC),PRISM cell line WM983B_SKIN,0.8889
same,Area under the curve (AUC),PRISM cell line WM1799_SKIN,0.895
same,Area under the curve (AUC),PRISM cell line WM2664_SKIN,1
same,Area under the curve (AUC),PRISM cell line WSUDLCL2_HAEMATOPOIETIC_AND_LYMPHOID_TISSUE,0.7398
same,Area under the curve (AUC),PRISM cell line YAPC_PANCREAS,0.3838
same,Area under the curve (AUC),PRISM cell line YD8_UPPER_AERODIGESTIVE_TRACT,0.6798
same,Area under the curve (AUC),PRISM cell line YD10B_UPPER_AERODIGESTIVE_TRACT,0.5071
same,Area under the curve (AUC),PRISM cell line YD15_SALIVARY_GLAND,0.6061
same,Area under the curve (AUC),PRISM cell line YD38_UPPER_AERODIGESTIVE_TRACT,0.3904
same,Area under the curve (AUC),PRISM cell line YH13_CENTRAL_NERVOUS_SYSTEM,0.8657
same,Area under the curve (AUC),PRISM cell line YKG1_CENTRAL_NERVOUS_SYSTEM,0.6932
same,Area under the curve (AUC),PRISM cell line YSCCC_BILIARY_TRACT,0.8108
same,Area under the curve (AUC),PRISM cell line ZR751_BREAST,0.889
same,Area under the curve (AUC),PSN1_PANCREAS,0.3751
same,Area under the curve (AUC),QGP1_PANCREAS,0.5441
same,Area under the curve (AUC),RBE_BILIARY_TRACT,0.4809
same,Area under the curve (AUC),RCC10RGB_KIDNEY,0.8801
same,Area under the curve (AUC),[1],0.8967
same,PRISM AUC,[1],0.7583
same,Area under the curve (AUC),RCK8_HAEMATOPOIETIC_AND_LYMPHOID_TISSUE,0.7966
same,Area under the curve (AUC),RCM1_LARGE_INTESTINE,0.3302
same,Area under the curve (AUC),RDES_BONE,0.9122
same,Area under the curve (AUC),RD_SOFT_TISSUE,0.3974
same,Area under the curve (AUC),RERFGC1B_STOMACH,0.6809
same,Area under the curve (AUC),RERFLCAD1_LUNG,0.7707
same,PRISM AUC,RERFLCAD1_LUNG,0.7443
same,Area under the curve (AUC),RERFLCAD2_LUNG,0.4397
same,Area under the curve (AUC),RERFLCAI_LUNG,0.7378
same,Area under the curve (AUC),RERFLCKJ_LUNG,0.8933
same,Area under the curve (AUC),RERFLCMS_LUNG,0.8678
same,Area under the curve (AUC),RH4_SOFT_TISSUE,0.8793
same,Area under the curve (AUC),RH28_SOFT_TISSUE,1
same,Area under the curve (AUC),RH30_SOFT_TISSUE,0.7611
same,Area under the curve (AUC),RH36_SOFT_TISSUE,0.5745
same,Area under the curve (AUC),RI1_HAEMATOPOIETIC_AND_LYMPHOID_TISSUE,0.7813
same,Area under the curve (AUC),RKN_SOFT_TISSUE,0.3164
same,Area under the curve (AUC),RKO_LARGE_INTESTINE,0.8838
same,Area under the curve (AUC),RL952_ENDOMETRIUM,0.3899
same,Area under the curve (AUC),RL_HAEMATOPOIETIC_AND_LYMPHOID_TISSUE,0.698
same,Area under the curve (AUC),RMGI_OVARY,0.6195
same,Area under the curve (AUC),RMSYM_SOFT_TISSUE,0.8685
same,Area under the curve (AUC),RMUGS_OVARY,0.8513
same,Area under the curve (AUC),RO82W1_THYROID,0.6499
same,Area under the curve (AUC),RPMI7951_SKIN,0.8835
same,Area under the curve (AUC),RPMI8402_HAEMATOPOIETIC_AND_LYMPHOID_TISSUE,0.8325
same,Area under the curve (AUC),RT4_URINARY_TRACT,0.5474
same,Area under the curve (AUC),RT112_URINARY_TRACT,0.3119
same,Area under the curve (AUC),RVH421_SKIN,0.8271
same,Area under the curve (AUC),S117_THYROID,0.6069
same,Area under the curve (AUC),SAOS2_BONE,1
same,Area under the curve (AUC),SBC5_LUNG,0.7851
same,Area under the curve (AUC),SCABER_URINARY_TRACT,0.5726
same,Area under the curve (AUC),SCC3_HAEMATOPOIETIC_AND_LYMPHOID_TISSUE,0.5368
same,Area under the curve (AUC),SCC9_UPPER_AERODIGESTIVE_TRACT,0.4075
same,Area under the curve (AUC),SCC25_UPPER_AERODIGESTIVE_TRACT,0.552
same,Area under the curve (AUC),SCLC21H_LUNG,0.7946
same,Area under the curve (AUC),SEM_HAEMATOPOIETIC_AND_LYMPHOID_TISSUE,0.7824
same,Area under the curve (AUC),SF126_CENTRAL_NERVOUS_SYSTEM,0.8289
same,Area under the curve (AUC),SF295_CENTRAL_NERVOUS_SYSTEM,0.777
same,Area under the curve (AUC),SF539_CENTRAL_NERVOUS_SYSTEM,0.6596
same,Area under the curve (AUC),SG231_BILIARY_TRACT,0.2187
same,Area under the curve (AUC),SH4_SKIN,0.9047
same,Area under the curve (AUC),SH10TC_STOMACH,0.6214
same,Area under the curve (AUC),SHMAC5_PROSTATE,0.456
same,Area under the curve (AUC),SHP77_LUNG,0.873
same,Area under the curve (AUC),SIMA_AUTONOMIC_GANGLIA,0.8241
same,Area under the curve (AUC),SISO_CERVIX,0.4817
same,Area under the curve (AUC),SJSA1_BONE,0.6167
same,PRISM AUC,SJSA1_BONE,0.5047
same,Area under the curve (AUC),SKES1_BONE,0.8287
same,Area under the curve (AUC),SKGII_ENDOMETRIUM,0.7172
same,Area under the curve (AUC),SKGI_ENDOMETRIUM,0.6094
same,Area under the curve (AUC),SKGT2_STOMACH,0.6419
same,Area under the curve (AUC),SKGT4_OESOPHAGUS,0.4574
same,Area under the curve (AUC),SKHEP1_LIVER,0.8479
same,Area under the curve (AUC),SKLMS1_SOFT_TISSUE,0.6292
same,Area under the curve (AUC),SKLU1_LUNG,0.439
same,Area under the curve (AUC),SKM1_HAEMATOPOIETIC_AND_LYMPHOID_TISSUE,0.2381
same,Area under the curve (AUC),SKMEL2_SKIN,0.711
same,Area under the curve (AUC),SKMEL3_SKIN,1
same,Area under the curve (AUC),SKMEL5_SKIN,0.8732
same,Area under the curve (AUC),SKMEL24_SKIN,0.7818
same,Area under the curve (AUC),SKMEL28_SKIN,1
same,Area under the curve (AUC),SKMEL30_SKIN,0.552
same,Area under the curve (AUC),SKMES1_LUNG,0.6852
same,Area under the curve (AUC),SKNAS_AUTONOMIC_GANGLIA,0.5373
same,Area under the curve (AUC),SKNBE2_AUTONOMIC_GANGLIA,0.6192
